The nature of the series: Heterologous soluble protein expression in E. coli, SDS gel of soluble fraction. Also noted: key: n, no expression; y, expression; sol, purified protein is soluble; ppt, purified protein precipitates over time. The following applies: judged by SDS gel electrophoresis of the soluble fraction of a total lysate; T7 expression system in E. coli.

B1: rsLacBP12: protein from Rhodobacter sphaeroides (SEQ ID NO: 12, 26, 126) (protein)
chain: MTAFEKKAAYSRRSFLRTGALAGGAAAGSVLAAPAVLAQAPLVMKMQTSWPASDIWMDFAREYVTRVEEMSGGRIKVDLLPAGAVVGAFQVMDAVHDGVIDASHSVSAYWYGKSKAASFFGTGPVFGGSATTMLGWFYQGGGQDLYRELTQDILGMNIVGFYGFPMPAQPFGWFKTEVNGVADIQGFKYRTVGLAADLLQAMGMSVAQLPGGEIVPAMERGVIDAFEFNNPSSDMRFGAQDVAKNYYLSSYHQASESFEYTFNRDFYEDLDPDLQAILKYAVEAASTSNTALALRQYSADLATLAAENGVAVHRTPKDILSGQLEAWDKLIVDLEADEFFKKVLDSQRAWVEQVSYYELMNAADLGLAYEHHFPGKLKL
modifications: Rhodobacter sphaeroides
Take B1: the “Soluble Expression” value is “y, sol”.

B2: tsLacBP4: lactate-binding protein from Thioalkalivibrio sulfidophilus (SEQ ID NO: 4, 18, 118) (protein)
chain: MTARGVRWRMQSAWQPGTIGYRTFETWARSIQELTSGELSIEPFPAGAVAGTFEMADAVRSGVLDGMNWFTVYWPGKMPAGVFMSAYPMALSLPHHWDMMFDSFGGRQIVDELYDRQGLVFLGHVQHDLNLIHSKVPLRSFDDFRGKRIRFPGGIIAETFAKVGVRTTLLPGGDVYPALERGTIDAADFVGPAVNYDLGFHQVADYIIMGPPSTPALHQPVDLMDISVNKRSWSRISEHTQKLMYKFVKAYSAEHFAAIQKANHEAWPKYKEAGVEVIHLSEEDAARFREAAIPLWFEWANKDRDAARLFKVHLEVMQDPSVAVITPDDIKDYKLNF
modifications: tsLacBP4 (with signal peptide replaced with M)
In the case of B2, the “Soluble Expression” value is “n”.

B3: tsLacBP7: lactate-binding protein from Thermus sp. (SEQ ID NO: 7, 21, 121) (protein)
chain: MQAPRFRWRIQSAWDAGTVGYTLFQRFAERVKELTDGQIEIQTFPAGAVVGTFDMFDAVKTGVLDGMHPFTLYWAGRMPVTAFLSSYPLGLDRPDQWETWYYALGGLDLARRAFEEQGLFYVGPVQHDYNLIHSKKPIKSFEDFKGVKLRVPGGMIADVFSAAGAATVLLPGGEVYPALERGVIDAADFVGPAVNYNLGFHQVTKYIIMGPPETPAIHQPVDLADITLNLSRWRAVPKNLQERFEAAVHEWSWIHYAGIQKANLETWPKYKAAGVQIIRLTTVDVRKFRRVAIPIWFKWAKQDKYAREAFASQLEYMKALGYVTDADVRGLSL
modifications: tsLacBP7 (with signal peptide replaced with M)
As to B3, the “Soluble Expression” value is “y, ppt”.

B4: msLacBP6: lactate-binding protein from Marinobacter sp. (SEQ ID NO: 6, 20, 120) (protein)
chain: MTDITCKIETKGSARRRGFLKTLAVSAAISATLLASSVQAATTWKIQSVWDAGTVGYDLFKEWCDGMEEKTGGELKFTCFPAKAVAADNNGLFDAVRNGVLQGMNPFTLYWSGKIPASVFLSSYPAGPDQPHQWDTMFYSLGMLEKTREIYKKFGLFYVGPIQHDANIIHSKQPINSLDDLKGLKMRLPGGMVAEVFAKFGVAAVSLPGSDIFPALEKGTIDAADYVGPAVNWELGFSQVTKYILMGPPGIMSVYQPVDLMDLTVNLRAWNALDPKLQQIVEDEVRIYSQKHYLAIQKRNIEAMKKFEAAGTTVTRLSQEDLQEFRRAAIPIWYSWANKDEDAREIFDMQLEYMMNDTVGYITEDDIKGMN
For B4, the “Soluble Expression” value is recorded as “y, sol”.

B5: psLacBP11: protein from Pseudomonas stuztzeri (SEQ ID NO: 11, 25, 125) (protein)
chain: MKRRHLFGAAALLATLALAGCKDEQSQAPNQQAAGEPAKTYHWKMVTAWPKNYPGLGTSAERLAERVNAMSGGRLTIKVYAAGELVPALEVFDAVSRGTAELGHGASYYWKGKVPTAQFFTSVPFGLSTSEMNAWLSKGGGQAFWDEAYAPFGVKPLVIGNTGMQMGGWYNKEINSLTDLKGLKIRMPGLGGEVLSRLGATTVNLPGGEVFTALQTGAIDATDWVSPYNDLAFGLHKAARYYYYPGWQEPQAVLELLINQKAFDSLPADLQAIVTEASLAASRDMHDDYVYNNALALEQLKQQGTELKRFPDEVLAAMREQSDLILGELAAQSELNGRIWASMKAFQAQVEPMHEISEKELYNWR
For B5, the “Soluble Expression” value is “y, ppt”.

B6: tsLacBP2: lactate-binding protein from Thermus scotoductus (SEQ ID NO: 2, 16, 116) (protein)
chain: MFSPLAVAQAPRFRWRIQSAWDAGTVGYSLFQKFAERVKELTDGQIEIQTFPAGAVVGTFDMFDAVKTGVLDGMHPFTLYWAGRMPVTAFLSSYPLGLDRPDQWETWYYGLGGLELARKAYEEQGLFFVGPVQHDYNLIHSKKPIKSFEDFKGVKLRVPGGMIAEIFAAAGAATVLLPGGEVYPALERGVIDAADFVGPAVNYNLGFHQVTKYIIMGPPETPAIHQPVDLADITININRWRALPRNLQERFEAAVHEWSWIHYAGIQKANLETWPKYKAAGVQVIRLSTVDVRKFRRVAIPIWFKWAKQDKYTREAFASQLEYMKALGYVTDADIRGLSL
modifications: tsLacBP2 (with signal peptide replaced with M)
With B6, the “Soluble Expression” value is reported as “n”.

B7: ttLacBP1: lactate-binding protein from Thermus thermophilus, seed sequence (SEQ ID NO: 1, 15, 115) (protein, listed as Thermus thermophilus)
chain: MKRVSRRAFLRRLGVGVAATAAFSPLAVAQARRYRWRIQTAWDAGTVGYSLFQKFTERVKELTDGQLEVQPFPAGAVVGTFDMFDAVKTGVLDGMNPFTLYWAGRMPVTAFLSSYALGLDRPDQWETWFYSLGGLDIARRAFAEQGLFYVGPVQHDLNIIHSKKPIRRFEDFKGVKLRVPGGMIAEVFAAAGASTVLLPGGEVYPALERGVIDAADFVGPAVNYNLGFHQVAKYIIMGPPETPAIHQPVDLMDFTINLNRWRSLPKPLQERFIAAVHEYSWIHYAGIQKANLEAWPKYRQAGVEVIRLSNEDVRKFRRLAIPIWFKWAKMDKYSREAFASQLEYMKGIGYVTDEELKGLSL
For B7, the “Soluble Expression” value is listed as “y, ppt”.

B8: pgLacBP10: protein from Polymorphum gilvum (SEQ ID NO: 10, 24, 124) (protein)
chain: MTEISRRGLLAGSVFGGVALAAPTVARAQEAVEWRMQALWDAGTTPFEFEKKFVERVGELTEGRFKITLYSAGQIVPANQAFDAVRSGAFEMMKTFDGYEAGKIPAFAFTSTIPFGFPQSDQYEAWFYELGGLDLAREAYAKGGLFYIAPTVYGEEPMHSTVKIESIADMAGKKGRFVGLASAVMADLGVAVSPLATAEVYTALEKGLIDFADRGDLTANYEAGLGEVAKFIILPGVHQPTTATSYVANQAAYQKLPDGFKAALAVAAREISGSLRQHILVQDMEVLTKYKDQGVEVVRLDAADIAAARAKAVESWEKATKGDELATRVLKGQVDFMTSLGLL
On to B8, for which the “Soluble Expression” value is given as “y, sol”.

B9: adLacBP9: protein from Anaeromyxobacter dehalogenans (SEQ ID NO: 9, 23, 123) (protein)
chain: MKKTTSRSQPDTAPKASRRSFLKKAALGAAGVAAGAAAPTIHVAQAPITLRFQSTWPQKDIFHEFALDYAKKVNEMSGGRLKIEVLAAGSVVKAFDLLDAVSKGTLDGGHGVVAYWYGKNTALALWGSGPAFGMDPNMVLAWHHYGGGRQLLEEIYRSLNLDVVSLMYGPMPTQPLGWFKQKPIAKPDDMKGLKFRTVGLSIDIFNGLGAAVNALPGAEIVPAMDRGLLDAAEFNNASSDRVLGFPDVSKICMLQSFHQCSEQFEILFNGKRFQALPADLKSIISIAAQAASADMSWKAIDRYSSDYFEMRDKQGVKFYSTRPEILKRQLEIWDQVMEKRAAENPTFKKVLESQRRFAQRAARWQNDTNVDFKMAYNHFFGGKKKAT
In the case of B9, the “Soluble Expression” value is recorded as “y, ppt”.

B10: fsLacBP13: protein from Flexistipes sinusarabici (SEQ ID NO: 13, 27, 127) (protein, listed as Flexistipes sinusarabici)
chain: MGMMKKLLYSLLIILLVASAGFTAEKKIRWKLAMTWGPTLHPLSDTAEHMAEIVKELSDGNFVINIDASNVHKAPFGIFDMVKLGQYEMGHTASYYYKGKNIAFLPLTTMPFGMTAPEQYAWFYYGGGLELMQEAYTKHGMLAFPGGNTGNQMGGWFTKEINSLDDLKGLKMRIPGFAGQIMSKLGVTVTNIPPGELYTALERGTVDAVEWTGPGMDINMGFHKIAKYYYTGWHEPGSEVEFLINEKEYNKLPEKYKKILKIAMKTAAYDMYIQSYEMNAEAWQQMKEKYPDIKVKVFPEEVLKEMKTAYDNLVASYEKESPMFKKIMESKRAYLDKVRDWTHISDYLYLKSTSESNLN
For B10, the “Soluble Expression” value is “y, ppt”.

The values above are taken from US11099176B2 (Duke University, priority 2015, dated 2021).
